This passage reports AC50 results from PubChem BioAssay AID493014 (National Center for Advancing Translational Sciences (NCATS), 2011).

A short description of this experiment: qHTS Assay to Find Inhibitors of Chronic Active B-Cell Receptor Signaling. The following applies: ABC-DLBCL IkBa-CBG/CBR reporter, luminescence ratio (green luciferase fused to IkBa over red control in TMD8 lymphoma cells), 4 h. The gist of the method:
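TMD8 ABC-DLBCL cells carrying doxycycline-inducible green luciferase fused to IkappaBalpha plus unfused red luciferase were exposed to compounds (up to 46 uM) for 4 hrs at 37C. Activity came from the overlap-corrected green/red luminescence ratio.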

[1] abbreviates: measured here: CBR red luminescence, cell number.

The other results are listed elsewhere or left out. Shown are side measurements of this screen, not its main read-out; they come without a call. Most of these compounds were active or inconclusive in the main read-out, so they are no random draw. Potencies come from curve fits of mixed quality, noted in brackets.

`COc1ccc(OCCSc2nnc(Cc3cccc4ccccc34)n2N)cc1`: the AC50 under setting [1] was 6.51 µM [rising, single point].
Same read-out and setting: the same measure for `Cc1onc(-c2ccccc2)c1C(=O)Nc1ccc(N2CCOCC2)cc1`: 2.06 µM [rising, partial curve, poor fit]; for `CCOC(=O)c1cnc2c(-c3ccc(Cl)cc3)cnn2c1C`: 0.316 µM [rising, full curve, poor fit].
In the case of `COCc1cc(C)n(CC(=O)OC)c(=O)c1C#N`, under setting [1], the AC50 was 12.6 µM [rising, partial curve, poor fit].
On the same count and under the same terms, the same measure for `CCN1CCN(CCCOc2ccccc2-c2ccccc2)CC1`: 35.5 µM [falling, single point].
Turning to `O=c1[nH]c(CSc2ncc(-c3ccc(F)cc3)n2Cc2ccco2)nc2ccccc12`, the AC50 under setting [1] was 25.1 µM [falling, single point].
On to `Cc1cccc(NCC(=O)N/N=C\c2ccc[nH]2)c1`, for which, under setting [1], the AC50 is 35.5 µM [rising, single point].
With `CCOc1ccc(C(C)=O)cc1COC(=O)c1ccccc1C(=O)N(C)Cc1ccccc1`, under setting [1], the AC50 was 32.6 µM [falling, partial curve, poor fit].
Same read-out and setting: the same measure for `CC(C)[C@H]1CN=C2N(CCNC(=O)CCC3CCCCC3)[C@H](Cc3ccc(O)cc3)CN21`: 11.2 µM [falling, single point]; for `COc1ccc(OCCC(=O)N2CCCCC2)cc1`: 16.4 µM [falling, single point].
`C=CCNc1oc(-c2cccc(F)c2)nc1C#N`: the AC50 (measured here: IkBa-CBG green luminescence) is 23.1 µM [falling, single point].
Regarding `CCc1ccccc1OCC(=O)Nc1cc(S(=O)(=O)N2CCOCC2)ccc1N1CCCCC1`, under setting [1], the AC50 was 14.6 µM [falling, partial curve].
On to `CC1(C)CC2(CC(c3ccc(F)cc3)c3ccc(O)cc3O2)NC(=S)N1` (stereo unspecified), for which, under setting [1], the AC50 was 17.8 µM [falling, single point].
With `Cc1ccc2c(c1)C(=C(C#N)C#N)C(=O)N2CCN1CCOCC1`, the concentration at half-maximal activity (AC50) under setting [1] is 35.5 µM [falling, single point].
Same read-out and setting: with `CCCSc1sc(C(=O)OC)c(-c2cccs2)c1C#N` the figure was 14.1 µM [rising, partial curve]; with `COc1ccc(Cl)cc1C(=O)NC(=S)Nc1ccccc1N1CCOCC1`, 35.5 µM [falling, single point].
Turning to `COc1ccc(-c2cc(C(=O)N3CCN(c4ccc(F)cc4)CC3)no2)cc1OC`, the AC50 under setting [1] was 17.8 µM [falling, partial curve, poor fit].
Same read-out and setting: the same measure for `C/C(=N\NC(=S)Nc1ccccc1C)c1cc2ccccc2o1`: 8.91 µM [falling, partial curve].
For `O=C(O)c1ccc(-c2nc3ccccc3[nH]2)cc1`, the AC50 under setting [1] is 23.1 µM [falling, single point].
Same read-out and setting: the same measure for `CN(C(=O)c1cccc(C#N)c1)c1nnc(-c2cnccn2)s1`: 0.517 µM [rising, partial curve, poor fit].
Turning to `CC(C)c1nc(=S)n(-c2ccccc2)[nH]1`, the AC50 under setting [1] was 17.8 µM [rising, single point].
Consider `CCOC(=O)c1c(CC(C)C)csc1/N=C/C1C(=O)CCCC1=O`, for which the AC50 under setting [1] is 8.91 µM [falling, partial curve, poor fit].
Consider `COC(=O)c1cc(Cl)c(NC(=O)c2cc(OC)c(OC)c(OC)c2)cc1OC`, for which the AC50 under setting [1] is 6.51 µM [rising, full curve].
Still for that read-out and setting: the same measure for `COc1ccc(/C=C2\CCc3ccccc3C2=O)c(OC)c1OC`: 3.98 µM [rising, partial curve, poor fit].
Same read-out and setting: the same measure for `C=CC(=O)Nc1cccc(Oc2ncnc3[nH]cc(-c4cnc5ccccc5c4)c23)c1`: 7.31 µM [falling, partial curve]; for `CCOC(=O)/C(=C\C=C\N1CCOCC1)C(C)=O`: 3.98 µM [rising, full curve, poor fit].
The same measure, in the same setting: the same measure for `Cc1ccc(NC(=O)Cn2c(O)c(N=NC(=O)c3cc([N+](=O)[O-])ccc3O)c3ccccc32)cc1`: 0.316 µM [falling, full curve]; for `COc1ccc(OC)c(S(=O)(=O)N2CCC3(CC2)OCCN3S(=O)(=O)c2ccccc2)c1`: 6.51 µM [rising, partial curve, poor fit]; for `CC(C)(C)OC(=O)C1=C(CO)CS[C@@H]2[C@H](NC(=O)Cc3ccccc3)C(=O)N12`: 32.6 µM [falling, partial curve, poor fit].
`CCN(CC)c1ccc(/C=N/NC(=O)c2c(Cl)cnn2C)c(O)c1`: under setting [1], the AC50 was 7.31 µM [falling, partial curve, poor fit].
On the same count and under the same terms, with `Oc1cccc(/C=N/c2c(-c3ccco3)nc3ccccn23)c1` the figure was 28.2 µM [falling, partial curve, poor fit]; with `COc1ccc(-c2nnn(CC(=O)N3CCN(c4ccccc4OC)CC3)n2)cc1OC`, 2.51 µM [rising, partial curve, poor fit]; with `CCCN(CC(=O)Nc1ccccc1OC)C(=O)CN1C(=O)NC2(CCCCC2)C1=O`, 29.1 µM [rising, partial curve, poor fit].
Same read-out and setting: the same measure for `Cc1c(C(=O)Nc2ccc(F)cc2)oc2ccc(S(=O)(=O)N3CCC4(CC3)OCCO4)cc12`: 10 µM [falling, partial curve]; for `CCOC(=O)C1(Cc2cccc(Cl)c2)CCCN(C(=O)c2ccc(C)nc2)C1` (stereo unspecified): 35.5 µM [rising, single point]; for `COc1ccc(NS(=O)(=O)c2cccc(C(=O)NCC(c3ccc(OC)cc3)N3CCCC3)c2)cc1` (stereo unspecified): 6.51 µM [falling, partial curve, poor fit].
Same read-out and setting: with `O=C(Nc1nnc(C2CC2)s1)c1ccccn1` the figure was 10 µM [falling, partial curve]; with `NC(=O)c1ccccc1NC(=O)c1ccc2ccccc2c1`, 25.1 µM [falling, single point].
As for `Nc1ccccc1C(=O)N1CCc2ccccc21`, the AC50 under setting [1] was 12.6 µM [falling, partial curve].
With `CSc1ccc(/C=N\NC(=O)COc2ccc(Cl)cc2Br)cc1`, under setting [1], the AC50 is 3.16 µM [rising, full curve, poor fit].
For the compound `CC(C)Oc1cccc(C(=O)NC(=S)Nc2cccnc2)c1`, under setting [1], the AC50 is 16.4 µM [falling, partial curve].
